System: rats pigmentés Brown-Norway

For `Nc1nc2ccc(OC(F)(F)F)cc2s1` [riluzole, 2-amino-6-trifluoromethoxy benzothiazole], the “protection (ERG) à des temps plus courts de reperfusion” value (2 days after ischemia, local application before ischemia, compared with the other regimens) was “la protection la plus efficace”, the “amplitude de l'onde "b"” value (7 days reperfusion, all routes (IP or local) and timings (before or after ischemia)) was ~75 % de la valeur contrôle and the “ondes "a" et "b" de l'ERG” value (local application, pre- or post-treatment, one week of reperfusion) was “proches de l'amplitude de celles d'animaux "Témoins"”. For the same compound, the “amplitude des ondes "a" et "b" chez des rats non-ischémiés” value (non-ischemic rats treated with riluzole) was “n'est pas affectée par le traitement”.

Source: EP1054668B1 (CENTRE NATIONAL DE LA RECHERCHE SCIENTIFIQUE (CNRS), priority 1998, dated 1999)
